# Experimental data reported in publication PMC1079787.
# These are yes or no findings as the source states them, for the method shown. In cells and extracts the contact can be indirect. Tags and fused reporters may be left off the sequences shown.
# T1: TAP-tagged Rrp6 protein (S. cerevisiae), Q12149
# T1 chain: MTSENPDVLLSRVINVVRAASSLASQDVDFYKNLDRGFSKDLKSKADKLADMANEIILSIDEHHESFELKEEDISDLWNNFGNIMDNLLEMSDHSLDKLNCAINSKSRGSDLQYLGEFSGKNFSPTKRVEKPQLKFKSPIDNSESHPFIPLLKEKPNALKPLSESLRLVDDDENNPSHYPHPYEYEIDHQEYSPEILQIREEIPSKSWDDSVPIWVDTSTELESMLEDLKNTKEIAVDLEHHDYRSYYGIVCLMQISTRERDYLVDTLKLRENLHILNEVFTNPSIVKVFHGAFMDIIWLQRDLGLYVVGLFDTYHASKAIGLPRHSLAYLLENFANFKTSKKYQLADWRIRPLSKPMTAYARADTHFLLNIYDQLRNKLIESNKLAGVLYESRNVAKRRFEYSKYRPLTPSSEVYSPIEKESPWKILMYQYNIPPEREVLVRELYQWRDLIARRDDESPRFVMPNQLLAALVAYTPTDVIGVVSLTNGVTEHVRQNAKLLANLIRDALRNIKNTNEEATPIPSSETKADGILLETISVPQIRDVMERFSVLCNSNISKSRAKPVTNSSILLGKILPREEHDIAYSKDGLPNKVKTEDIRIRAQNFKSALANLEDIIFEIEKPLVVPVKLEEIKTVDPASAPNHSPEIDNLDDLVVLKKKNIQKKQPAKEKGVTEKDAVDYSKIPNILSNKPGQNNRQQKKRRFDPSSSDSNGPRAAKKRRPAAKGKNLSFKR
# Target: T1, TAP-tagged Rrp6 protein (S. …)
# Test: co-IP; TAP-tagged protein affinity-purified from yeast extract on IgG Sepharose; eluates in buffer A (120 mM KCl); Western blot with anti-Trf4p, anti-Mtr4p and anti-TAP antibodies
# Details: remark: other sources report otherwise
binder,measurement,value
"Trf4p, P53632 1-584 (enzyme) MGAKSVTASSSKKIKNRHNGKVKKSKKIKKVRKPQKSISLNDENEVEILPSRNEQETNKLPKDHVTADGILVLEHKSDDDEGFDVYDGHFDNPTDIPSTTEESKTPSLAVHGDEKDLANNDDFISLSASSEDEQAEQEEEREKQELEIKKEKQKEILNTDYPWILNHDHSKQKEISDWLTFEIKDFVAYISPSREEIEIRNQTISTIREAVKQLWPDADLHVFGSYSTDLYLPGSDIDCVVTSELGGKESRNNLYSLASHLKKKNLATEVEVVAKARVPIIKFVEPHSGIHIDVSFERTNGIEAAKLIREWLDDTPGLRELVLIVKQFLHARRLNNVHTGGLGGFSIICLVFSFLHMHPRIITNEIDPKDNLGVLLIEFFELYGKNFGYDDVALGSSDGYPVYFPKSTWSAIQPIKNPFSLAIQDPGDESNNISRGSFNIRDIKKAFAGAFDLLTNRCFELHSATFKDRLGKSILGNVIKYRGKARDFKDERGLVLNKAIIENENYHKKRSRIIHDEDFAEDTVTSTATATTTDDDYEITNPPAKKAKIEEKPESEPAKRNSGETYITVSSEDDDEDGYNPYTL",binding,no binding
